These are yes or no findings as the source states them, for the method shown. In cells and extracts the contact can be indirect. Some entries that bind do so weakly or less than the wild type. Sequences can lack the tags named with a protein.
Target: T1, SH2D4A-HA-LN151 (Src homology 2 domain-containing 4A, BiFC fusion) (UniProt Q9H788)
T1 sequence: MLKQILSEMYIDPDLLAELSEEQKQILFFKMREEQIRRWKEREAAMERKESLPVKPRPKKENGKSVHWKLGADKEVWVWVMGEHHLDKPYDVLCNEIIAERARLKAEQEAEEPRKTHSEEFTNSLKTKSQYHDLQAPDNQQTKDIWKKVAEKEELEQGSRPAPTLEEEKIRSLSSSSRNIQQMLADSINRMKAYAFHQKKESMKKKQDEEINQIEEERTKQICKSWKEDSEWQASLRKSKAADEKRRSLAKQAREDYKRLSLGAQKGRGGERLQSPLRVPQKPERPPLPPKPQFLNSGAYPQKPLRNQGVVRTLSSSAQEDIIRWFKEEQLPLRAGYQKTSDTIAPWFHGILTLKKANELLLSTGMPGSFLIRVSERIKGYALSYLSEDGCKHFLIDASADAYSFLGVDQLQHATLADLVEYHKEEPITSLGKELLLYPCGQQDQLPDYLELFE
Test: split reporter; BiFC with mLumin fragments LN151 and LC151 in transfected HuH1 cells, live-cell imaging (ex 588 nm, em 623 nm), before and after stimulation with IL-6 (20 ng/ml)

By UniProt entry, the sequences of proteins in these tests, tags left out.
UniProt P40763: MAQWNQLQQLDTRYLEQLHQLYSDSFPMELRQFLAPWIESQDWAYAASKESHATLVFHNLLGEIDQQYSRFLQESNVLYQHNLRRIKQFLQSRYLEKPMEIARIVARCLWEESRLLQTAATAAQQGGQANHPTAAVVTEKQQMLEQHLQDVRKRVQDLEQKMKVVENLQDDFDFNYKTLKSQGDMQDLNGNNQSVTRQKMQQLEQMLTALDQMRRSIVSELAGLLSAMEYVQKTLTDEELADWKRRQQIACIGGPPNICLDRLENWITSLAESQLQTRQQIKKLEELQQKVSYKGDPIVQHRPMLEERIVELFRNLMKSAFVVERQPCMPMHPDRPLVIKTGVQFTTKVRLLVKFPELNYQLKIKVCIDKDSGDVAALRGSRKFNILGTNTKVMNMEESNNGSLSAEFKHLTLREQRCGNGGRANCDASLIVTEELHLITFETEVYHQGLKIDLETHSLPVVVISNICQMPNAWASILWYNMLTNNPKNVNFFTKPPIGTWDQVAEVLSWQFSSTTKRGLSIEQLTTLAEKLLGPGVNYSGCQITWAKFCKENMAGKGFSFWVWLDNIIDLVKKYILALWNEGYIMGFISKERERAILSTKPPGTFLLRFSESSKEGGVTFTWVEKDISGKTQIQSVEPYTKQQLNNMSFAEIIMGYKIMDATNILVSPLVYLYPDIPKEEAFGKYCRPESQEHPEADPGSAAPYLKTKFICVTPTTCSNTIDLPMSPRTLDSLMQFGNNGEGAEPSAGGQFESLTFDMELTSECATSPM

“STAT3wt-myc-LC151 (Signal Transducer and Activator of Transcription 3, BiFC fusion) (from UniProt P40763 1-770)” was tested, and the binding was “binds”.
